Cell number change and AC50 data for 62 compounds are collected here from PubChem BioAssay AID2685 (National Center for Advancing Translational Sciences (NCATS), 2010).

The nature of this test: qHTS Assay for Lipid Storage Modulators in Drosophila S3 Cells.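 As to Cell number change: cells counted by Cell Tracker Red CMTPX staining in the red channel.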 To be noted: BODIPY lipid droplet fluorescence, 18-24 h; for cell number change: measured here: cell count max response, cells fed with added oleic acid. The procedure, abridged:
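Drosophila S3 cells got compounds at several concentrations plus oleic acid (400 uM solution). Laser-scanning cytometry with 488 nm excitation read lipid droplets at 500-530 nm and cells at 575-640 nm. Percent activity was relative to 20 uM Triacsin C.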
On the technique in general: In qHTS, concentration-response curves come from the screen itself.

Where [1] appears, read: measured here: lipid fluorescence (Fed channel) AC50, cells fed with added oleic acid.
The mark [2] stands for this setting: measured here: cell number channel AC50, cells fed with added oleic acid.

This is one part of the list. The main result of the screen is listed elsewhere. These columns were measured beside it and carry no call. The list favours compounds with an active or inconclusive main result. The note in brackets gives the kind of curve behind each potency; many fits are weak.

For the compound `CCC(C)C(=O)Nc1nnc(SCC(=O)NC2CCCC2)s1` (centres undefined), the cell number change turned out to be 5.41%. In addition, the AC50 under setting [1] was 2.91 µM [falling, single point]. As for `COC(=O)C1=C(N)Oc2cc(C)[nH]c(=O)c2C1c1cc(OC)c(OC)c(OC)c1` (centres undefined), the cell number change came to 19.9%. Under setting [1], the AC50 is 1.84 µM [rising, partial curve, poor fit].

Turning to `COc1cccc(CN(C)C(=O)CNC(=O)c2sc3ccccc3c2Cl)c1OC`, the cell number change was -8.22%. Also, the concentration at half-maximal activity (AC50) under setting [1] is 29.1 µM [rising, single point]. On to `CN(C(=O)c1ccc(NC(=O)c2ccco2)cc1)c1ccccc1`, for which the concentration at half-maximal activity (AC50) under setting [1] is 7.31 µM [falling, partial curve].

As to `COc1ccccc1NS(=O)(=O)c1ccccc1C#N`, the cell number change is 1.55%. Turning to `O=C(NC(=S)Nc1ccc(CN2CCCCC2)cc1)c1cccc(OCc2ccccc2)c1`, the cell number change was determined as 62.8%. The AC50 under setting [2] is 0.092 µM [falling, full curve, poor fit]. The half-maximal activity concentration (AC50) under setting [1] is 0.13 µM [falling, full curve, poor fit]. Turning to `Cc1ccc2[nH]c3c(N4CCOCC4)ncnc3c2c1`, the cell number change is -12%. The concentration at half-maximal activity (AC50) under setting [2] is 0.259 µM [rising, full curve, poor fit].

For the compound `Cc1cc(C)cc(N(C(=O)c2csnn2)C(C(=O)NC2CCCCC2)c2ccncc2)c1` (centres undefined), the cell number change was -15.4%. Besides, under setting [1], the AC50 was 0.0517 µM [rising, partial curve, poor fit]. For the compound `CC(=O)Nc1ccc(-c2csc(NC(=O)c3ccc(C)o3)n2)cc1`, the cell number change was -15%. For the same compound, the half-maximal activity concentration (AC50) under setting [1] was 11.6 µM [falling, partial curve]. As for `COc1ccc(NC(=O)COc2ccc(S(=O)(=O)N3CCOCC3)cc2C)cc1OC`, the cell number change was -10.5%.

For `CC(=O)N1CC(C)Oc2ccc(S(=O)(=O)NC(CC(=O)O)c3ccccc3)cc21` (centres undefined), the cell number change was -0.165%. For the same compound, under setting [1], the AC50 is 20.6 µM [rising, single point].

Turning to `CCc1cccc(NC(=O)CCCN2C(=O)C(c3ccccc3)Oc3cccnc32)c1` (centres undefined), the AC50 under setting [1] was 13 µM [falling, partial curve]. Take `Cc1ccc(/C(=N\O)c2oc3c(C)c4oc(=O)cc(C)c4cc3c2C)cc1`: the cell number change was -32.6%. For the same compound, under setting [2], the AC50 is 32.6 µM [falling, single point]. In addition, the AC50 under setting [1] is 32.6 µM [falling, single point].

In the case of `C=CCn1c(C)c(C(C)=O)c(N2CCOCC2)nc1=S`, the half-maximal activity concentration (AC50) under setting [1] was 4.11 µM [falling, partial curve, poor fit].

`CCOC(=O)N1N=C(c2ccccc2)CC1(O)C(F)(F)F` (centres undefined): the cell number change was found to be 13.8%. Also, under setting [1], the AC50 was 16.4 µM [rising, single point].

As to `CCNC(=O)/C=C1\NC(C)(C)Cc2c1ccc1ccccc21`, the cell number change was determined as 84.2%. Further, the concentration at half-maximal activity (AC50) under setting [2] was 13 µM [rising, partial curve].

For `COc1ccc(Cc2nnc(NC(=O)CS(=O)(=O)c3ccccc3)s2)cc1OC`, the cell number change is -3.42%. The half-maximal activity concentration (AC50) under setting [1] is 2.59 µM [rising, single point]. As to `CC(C)CC(=O)Nc1ccc(N2CCN(C(=O)c3cccs3)CC2)cc1`, the cell number change came out at 14.5%. In the case of `Cn1c(=O)c2c(nc(Br)n2CCSc2nnnn2-c2ccccc2)n(C)c1=O`, the cell number change was 86.3%. Further, the AC50 under setting [2] was 2.06 µM [rising, full curve]. The AC50 under setting [1] was 2.06 µM [rising, partial curve]. On to `Cn1cccc1C(C#N)(CC#N)c1cccc(F)c1C#N` (centres undefined), for which the cell number change stood at 15.8%. Further, the concentration at half-maximal activity (AC50) under setting [2] is 0.326 µM [falling, single point]. Take `Cc1ccc(-c2cc(C(F)F)n3ncc(C(=O)Nc4c(C)nn(Cc5ccccc5Cl)c4C)c3n2)cc1`: the cell number change was -0.832%. Further, the AC50 under setting [1] was 16.4 µM [falling, partial curve]. For `CCOc1ccc(CN2CCCC(CO)(Cc3ccc(F)cc3)C2)cc1` (centres undefined), the cell number change was -9.62%. Turning to `CC(C)CN1CCC(CN(C)Cc2nc(-c3cnccn3)no2)CC1`, the cell number change is 18.9%. Also, the AC50 under setting [1] was 29.1 µM [rising, single point].

For `CCN(CC)C(=O)c1sc(NC(=O)c2ccoc2C)c(C(=O)OC)c1C`, the cell number change was -17.3%. Besides, the AC50 under setting [1] was 1.46 µM [rising, full curve]. `COC(=O)c1nnn(-c2ccsc2C(=O)OC)c1C(=O)OC`: the cell number change is -26.5%. In addition, the AC50 under setting [1] was 1.03 µM [falling, full curve, poor fit]. `CC(C)(C)NC(=O)NC(=O)CN1CCN(c2ccccc2O)CC1`: the cell number change was -37.1%. Besides, under setting [2], the AC50 was 29.1 µM [falling, single point]. Further, under setting [1], the half-maximal activity concentration (AC50) is 29.1 µM [falling, single point]. As for `COCCn1c(SC(C(=O)Nc2cc(C)ccc2OC)c2ccccc2)nnc1-c1ccc(Cl)cc1` (centres undefined), the cell number change is 17.7%. Moreover, under setting [2], the AC50 is 0.517 µM [rising, full curve, poor fit]. Regarding `COc1ccc(Cl)cc1-c1n[nH]c(=S)n1Cc1ccccc1`, the cell number change worked out at 23%. In addition, under setting [1], the AC50 was 0.00411 µM [rising, full curve, poor fit]. Take `O=C1[C@@H]2C(Cc3ccc(O)cc3)NC3(C(=O)Nc4ccc(F)cc43)[C@@H]2C(=O)N1c1ccccc1` (some centres undefined): the cell number change is -7.46%. In addition, under setting [1], the half-maximal activity concentration (AC50) was 4.11 µM [rising, single point].

On to `C=CCNCc1ccccc1[N+](=O)[O-]`, for which the cell number change was 15.8%. The half-maximal activity concentration (AC50) under setting [1] was 29.1 µM [rising, single point]. Consider `O=C(NNC(=O)c1cc(Br)ccc1O)c1csc(N2CCOCC2)n1`, for which the cell number change is -21.2%. Still for that read-out and setting: the same measure for `Cc1ccc(NC(=O)c2c(F)cccc2Cl)cc1S(=O)(=O)N1CCOCC1`: 12.7%. On to `O=C1CC(SCc2nc3ccccc3[nH]2)C(=O)N1c1ccc(F)cc1` (centres undefined), for which the cell number change is 0.809%. The half-maximal activity concentration (AC50) under setting [1] is 0.82 µM [rising, full curve, poor fit]. With `O=C(O)C1(c2ccccc2)CCN(S(=O)(=O)c2cccs2)CC1`, the cell number change was -18.6%. Under setting [1], the AC50 was 0.731 µM [falling, full curve, poor fit]. For the compound `CC(C)OCC(O)CN` (centres undefined), the cell number change was -1.21%. For `O=C1CCCN1CCCNC(=S)Nc1ccc(Nc2ccccc2)cc1`, the cell number change is -32.4%. In the case of `COc1ccc(N2CCN(C(CNC(=O)c3cccs3)c3ccco3)CC2)cc1` (centres undefined), the cell number change came out at 50%. In addition, the half-maximal activity concentration (AC50) under setting [2] is 4.11 µM [rising, full curve]. Also, the AC50 under setting [1] is 18.4 µM [rising, single point]. Consider `COc1ccc2nc(NC(=O)CSc3nc(C)cc(C)n3)sc2c1`, for which the cell number change was -15.1%. The AC50 under setting [1] is 0.517 µM [rising, full curve, poor fit]. As to `CC(=O)OC(C(=O)NC1CCCCC1)c1ccccc1` (centres undefined), the cell number change turned out to be 5.7%. In the case of `CCCCc1cc(=O)oc2cc(C)cc(OCC(=O)N[C@@H](CSCc3ccccc3)C(=O)O)c12`, the cell number change is -12.7%. Moreover, under setting [1], the half-maximal activity concentration (AC50) was 2.91 µM [falling, single point].

As to `COc1cccc(NC(=O)CSc2nnc(NC(=O)C3CC3)s2)c1`, the cell number change worked out at 17.1%.

`CN(C)/C=C/C(=O)c1ccc(Oc2ncccn2)cc1`: the cell number change was found to be 111%. Further, the concentration at half-maximal activity (AC50) under setting [2] is 1.84 µM [falling, partial curve]. For the compound `CC(C(=O)O)N1C(=O)CSc2ncccc21` (centres undefined), the cell number change is -18.4%. The half-maximal activity concentration (AC50) under setting [1] was 7.31 µM [falling, partial curve, poor fit].

`CC(=O)NCCC1CCCCN1C(=O)c1cc(COc2cc(C)ccc2C)on1` (centres undefined): the concentration at half-maximal activity (AC50) is, setting by setting: under setting [2], 6.51 µM [rising, single point]; under setting [1], 29.1 µM [rising, single point]. `O=C(COCc1cc(-c2ccc3c(c2)OCO3)on1)Nc1cccnc1`: under setting [1], the AC50 is 0.58 µM [rising, single point]. On to `CN1CCN(C(=S)Nc2ccc(Oc3ccccc3)cc2)CC1`, for which the cell number change is -7.21%. The AC50 under setting [2] was 1.03 µM [rising, single point]. Consider `COc1cccc(CN(Cc2cccnc2)S(=O)(=O)c2ccc(-n3cnnn3)c(C)c2)c1OC`, for which the cell number change amounted to 20.6%. Besides, the AC50 under setting [2] is 0.82 µM [rising, full curve, poor fit]. Besides, the half-maximal activity concentration (AC50) under setting [1] was 2.06 µM [rising, partial curve]. In the case of `COc1ccc(C(=O)Nc2ccc(NC(=O)c3cccs3)cn2)cc1`, the AC50 under setting [1] was 18.4 µM [falling, single point]. With `Cc1ccc(NC(=S)NCc2ccc(Cl)cc2)c(OC(F)F)c1`, the cell number change came to 25.4%. In addition, the AC50 under setting [1] is 0.731 µM [rising, full curve]. For `CC(=O)c1cccc(N(CC(=O)NC2CCCC2)C(=O)CNC(=O)c2cccs2)c1`, the cell number change turned out to be 7.39%. Still for that read-out and setting: then `COc1ccc(N(CC(=O)NC2CC3CCC2C3)S(=O)(=O)c2ccccc2)cc1OC` (centres undefined), with 23.5%. On to `Cc1ccc(CN(C)C(=O)CCc2c[nH]c3ccccc23)o1`, for which the cell number change was 22.6%. In addition, under setting [2], the AC50 was 6.51 µM [rising, partial curve, poor fit]. Moreover, the concentration at half-maximal activity (AC50) under setting [1] was 6.51 µM [rising, single point]. Consider `CCOC(=O)CNC(=O)N1CCCC(C(=O)c2cccc(Cl)c2)C1` (centres undefined), for which the cell number change worked out at 3.38%. For the same compound, the half-maximal activity concentration (AC50) under setting [1] was 4.11 µM [falling, single point]. Regarding `O=c1[nH]c(C2CCN(S(=O)(=O)c3ccc(S(=O)(=O)NC4CC4)cc3)CC2)nc2c1nnn2Cc1ccc(F)cc1`, the cell number change is -23.1%. Further, the AC50 under setting [1] was 29.1 µM [rising, single point]. Turning to `COc1ccc(C2(CN(C(C)=O)C(C)=O)CCCC2)cc1OC`, the cell number change is 1.31%. Turning to `O=C(c1cc([N+](=O)[O-])ccc1N1CCOCC1)N1CCCCC1`, the cell number change is -24.8%. Moreover, the AC50 under setting [1] was 2.31 µM [falling, full curve].

Turning to `COc1ccc2c(c1)C(C)CC(C)(C)N2C(=O)CSc1nc2ccccc2s1` (centres undefined), the cell number change turned out to be 42.7%. For the same compound, the AC50 under setting [2] was 13 µM [rising, partial curve]. Under setting [1], the concentration at half-maximal activity (AC50) is 2.59 µM [rising, full curve, poor fit]. For `O=S(=O)([O-])C/C(=C\c1ccc(Cl)cc1)c1cc[n+](CCO)cc1`, the cell number change was -49.5%. Also, the AC50 under setting [2] is 29.1 µM [falling, single point]. Under setting [1], the half-maximal activity concentration (AC50) is 8.2 µM [falling, single point].

In the case of `CCOC(=O)COc1c(Br)cc(/C=C2\SC(=O)N(CC(=O)N3CCCC3)C2=O)cc1OC`, the cell number change is 12.4%. With `O=C1[C@@H]2C3C=CC(O3)[C@@H]2C(=O)N1c1ccccc1`, the cell number change amounted to 19.4%. For the same compound, under setting [2], the half-maximal activity concentration (AC50) was 6.51 µM [falling, single point]. The AC50 under setting [1] is 6.51 µM [falling, single point]. Regarding `Cc1c(C(=O)N2CCCCC2)c(S(=O)(=O)N2c3ccccc3CC2C)c(C)n1C` (centres undefined), under setting [1], the half-maximal activity concentration (AC50) was 29.1 µM [rising, single point]. For the compound `CC(C)(C)c1ccc(C(=O)NCCN2CCCC2)cc1`, the cell number change was -9.51%. Under setting [1], the AC50 was 4.61 µM [falling, full curve, poor fit].

In general, AC50 refers to the midpoint of the concentration-response curve, whichever way the signal moves. A high value points to weaker potency.
